Measured values: publication doi:10.1101/2024.04.11.589026 (bioRxiv, 2024)
Results are given in words; binding and its absence hold for the method and conditions named. In cells and extracts the contact can be indirect. Here binding means that the protein was enriched with, or labelled near, the bait; the list need not be complete. Where a sequence is shown, tags or fusion partners need not be part of it.

The chains behind the UniProt entries cited, without tags or fusion partners.
UniProt Q8TD16: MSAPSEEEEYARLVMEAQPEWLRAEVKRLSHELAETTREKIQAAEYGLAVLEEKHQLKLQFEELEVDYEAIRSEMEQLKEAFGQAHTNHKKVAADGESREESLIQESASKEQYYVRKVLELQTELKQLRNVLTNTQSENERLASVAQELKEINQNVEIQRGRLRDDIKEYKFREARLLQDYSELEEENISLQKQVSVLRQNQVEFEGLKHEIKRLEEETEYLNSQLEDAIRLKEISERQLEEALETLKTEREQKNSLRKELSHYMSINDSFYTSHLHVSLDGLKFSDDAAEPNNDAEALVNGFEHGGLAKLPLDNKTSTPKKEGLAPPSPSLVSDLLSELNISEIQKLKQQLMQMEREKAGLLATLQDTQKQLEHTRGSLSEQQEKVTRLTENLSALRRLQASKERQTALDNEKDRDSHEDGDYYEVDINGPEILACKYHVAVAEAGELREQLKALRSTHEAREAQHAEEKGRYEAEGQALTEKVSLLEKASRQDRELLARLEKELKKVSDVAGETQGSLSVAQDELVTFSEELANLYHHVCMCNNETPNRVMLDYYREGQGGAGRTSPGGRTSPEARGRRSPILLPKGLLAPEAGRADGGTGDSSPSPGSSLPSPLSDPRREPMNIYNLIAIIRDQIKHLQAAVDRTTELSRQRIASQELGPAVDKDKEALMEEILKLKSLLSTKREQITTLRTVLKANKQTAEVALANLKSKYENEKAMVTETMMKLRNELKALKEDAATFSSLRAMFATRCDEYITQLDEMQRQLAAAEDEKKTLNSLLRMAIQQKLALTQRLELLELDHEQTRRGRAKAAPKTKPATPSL

T1: GFP-ScaC (passenger domain of ScaC, residues 33-223, fused to a N-terminal eGFP tag) (Orientia tsutsugamushi) (UniProt I6Z768)
T1 sequence: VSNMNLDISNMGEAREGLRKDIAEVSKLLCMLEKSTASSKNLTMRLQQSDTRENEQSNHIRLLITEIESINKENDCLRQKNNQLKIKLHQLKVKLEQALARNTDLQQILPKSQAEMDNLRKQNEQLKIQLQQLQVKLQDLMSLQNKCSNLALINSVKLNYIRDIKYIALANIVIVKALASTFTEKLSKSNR


Biological target: T1, GFP-ScaC (passenger domain of ScaC, residues 33-223, fused to a N-terminal eGFP tag) (Orientia tsutsugamushi)
Experiment: affinity purification with mass spectrometry

Row | Molecule | binding
1 | BICD2 (endogenous, HeLa) (from UniProt Q8TD16 1-824) | binds
2 | BICD1 (endogenous, HeLa) (protein, UniProt Q96G01 1-975) MAAEEVLQTVDHYKTEIERLTKELTETTHEKIQAAEYGLVVLEEKLTLKQQYDELEAEYDSLKQELEQLKEAFGQSFSIHRKVAEDGETREETLLQESASKEAYYLGKILEMQNELKQSRAVVTNVQAENERLTAVVQDLKENNEMVELQRIRMKDEIREYKFREARLLQDYTELEEENITLQKLVSTLKQNQVEYEGLKHEIKRFEEETVLLNSQLEDAIRLKEIAEHQLEEALETLKNEREQKNNLRKELSQYISLNDNHISISVDGLKFAEDGSEPNNDDKMNGHIHGPLVKLNGDYRTPTLRKGESLNPVSDLFSELNISEIQKLKQQLMQVEREKAILLANLQESQTQLEHTKGALTEQHERVHRLTEHVNAMRGLQSSKELKAELDGEKGRDSGEEAHDYEVDINGLEILECKYRVAVTEVIDLKAEIKALKEKYNKSVENYTDEKAKYESKIQMYDEQVTSLEKTTKESGEKMAHMEKELQKMTSIANENHSTLNTAQDELVTFSEELAQLYHHVCLCNNETPNRVMLDYYRQSRVTRSGSLKGPDDPRGLLSPRLARRGVSSPVETRTSSEPVAKESTEASKEPSPTKTPTISPVITAPPSSPVLDTSDIRKEPMNIYNLNAIIRDQIKHLQKAVDRSLQLSRQRAAARELAPMIDKDKEALMEEILKLKSLLSTKREQIATLRAVLKANKQTAEVALANLKNKYENEKAMVTETMTKLRNELKALKEDAATFSSLRAMFATRCDEYVTQLDEMQRQLAAAEDEKKTLNTLLRMAIQQKLALTQRLEDLEFDHEQSRRSKGKLGKSKIGSPKVSGEASVTVPTIDTYLLHSQGPQTPNIRVSSGTQRKRQFSPSLCDQSRPRTSGASYLQNLLRVPPDPTSTESFLLKGPPSMSEFIQGHRLSKEKRLTVAPPDCQQPAASVPPQCSQLAGRQDCPTVSPDTALPEEQPHSSSQCAPLHCLSKPPHP | binds
